Read-outs that look alike come from different tables or passages of the source.
Experiments:
Test in all cases: cells
[1] = tested on: Toledo; conditions: Homo sapiens
[2] = tested on: WSU-DLCL2; conditions: Homo sapiens
[3] = tested on: SU-DHL-10; conditions: Homo sapiens
[4] = tested on: TMD8; conditions: Homo sapiens
[5] = tested on: SU-DHL5; conditions: Homo sapiens
[6] = tested on: SU-DHL-6; conditions: Homo sapiens
[7] = tested on: OCI-LY3; conditions: Homo sapiens
[8] = tested on: SU-DHL2; conditions: Homo sapiens
[9] = tested on: KARPAS-422; conditions: Homo sapiens
[10] = tested on: OCI-LY7; conditions: Homo sapiens
[11] = tested on: OCI-LY19; conditions: Homo sapiens, OCI-LY19, 336 h, read-out: IC50 Taz 14d
[12] = tested on: Farage; conditions: 336 h, read-out: IC50 Taz 14d
[13] = tested on: HT; conditions: Homo sapiens

IC50 ([1]; 168 h, read-out: IC50 Taz 7d): > 10000 nM
IC50 ([1]; 336 h, read-out: IC50 Taz 14d): 7600 nM
IC50 ([2]; WSUDLCL2, 168 h, read-out: IC50 Taz 7d): 100 nM
IC50 ([2]; WSUDLCL2, 336 h, read-out: IC50 Taz 14d): 86 nM
IC50 ([3]; SU-DHL10, 168 h, read-out: IC50 Taz 7d): 50 nM
IC50 ([3]; SU-DHL10, 336 h, read-out: IC50 Taz 14d): 58 nM
IC50 ([4]; TMD8, 168 h, read-out: IC50 Taz 7d): 5500 nM
IC50 ([4]; TMD8, 336 h, read-out: IC50 Taz 14d): 2600 nM
IC50 ([5]; SU-DHL-5, 168 h, read-out: IC50 Taz 7d): 3800 nM
IC50 ([5]; SU-DHL-5, 336 h, read-out: IC50 Taz 14d): 2100 nM
IC50 ([6]; SU-DHL-6, 168 h, read-out: IC50 Taz 7d): 100 nM
IC50 ([6]; SU-DHL-6, 336 h, read-out: IC50 Taz 14d): 47 nM
IC50 ([7]; OCI-Ly3, 168 h, read-out: IC50 Taz 7d): 5100 nM
IC50 ([7]; OCI-Ly3, 336 h, read-out: IC50 Taz 14d): 820000 nM
IC50 ([8]; SU-DHL-2, 168 h, read-out: IC50 Taz 7d): 1300 nM
IC50 ([8]; SU-DHL-2, 336 h, read-out: IC50 Taz 14d): 230000 nM
IC50 ([9]; KARPAS-422, 168 h, read-out: IC50 Taz 7d): 100 nM
IC50 ([9]; KARPAS-422, 336 h, read-out: IC50 Taz 14d): 18 nM
IC50 ([10]; OCI-Ly7, 168 h, read-out: IC50 Taz 7d): 1500 nM
IC50 ([10]; OCI-Ly7, 336 h, read-out: IC50 Taz 14d): 1400 nM
IC50 [11]: 6200 nM
IC50 [12]: 99 nM
IC50 ([13]; 168 h, read-out: IC50 Taz 7d): 500 nM
IC50 ([13]; 336 h, read-out: IC50 Taz 14d): 140 nM
SMILES: CCN(c1cc(-c2ccc(CN3CCOCC3)cc2)cc(C(=O)NCc2c(C)cc(C)[nH]c2=O)c1C)C1CCOCC1 [tazemetostat]

Source: patent publication US11147819B2, “EZH2 inhibitors for treating cancer” (Epizyme, Inc., priority 2016, dated 2021)
